Data taken from paper doi:10.1101/2022.01.25.477727.

Protein sequences, listed by entry. Tags and fused reporters are not part of them. Lines headed by an entry give the natural chain unless they say otherwise; changes in a name come on top.
UniProt Q9VKR0: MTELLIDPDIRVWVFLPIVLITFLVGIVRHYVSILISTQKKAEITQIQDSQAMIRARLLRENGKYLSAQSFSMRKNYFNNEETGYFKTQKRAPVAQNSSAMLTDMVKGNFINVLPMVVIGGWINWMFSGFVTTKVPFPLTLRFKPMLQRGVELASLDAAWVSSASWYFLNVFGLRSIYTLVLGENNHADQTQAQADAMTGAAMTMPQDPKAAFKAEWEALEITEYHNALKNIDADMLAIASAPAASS

How the values were obtained:
[1] = target: T1, Flag-Hpo (Flag-tagged Drosophila Hippo, from UAS-Flag-Hpo) (Drosophila melanogaster) (UniProt Q8T0S6); experiment: co-IP
T1 sequence: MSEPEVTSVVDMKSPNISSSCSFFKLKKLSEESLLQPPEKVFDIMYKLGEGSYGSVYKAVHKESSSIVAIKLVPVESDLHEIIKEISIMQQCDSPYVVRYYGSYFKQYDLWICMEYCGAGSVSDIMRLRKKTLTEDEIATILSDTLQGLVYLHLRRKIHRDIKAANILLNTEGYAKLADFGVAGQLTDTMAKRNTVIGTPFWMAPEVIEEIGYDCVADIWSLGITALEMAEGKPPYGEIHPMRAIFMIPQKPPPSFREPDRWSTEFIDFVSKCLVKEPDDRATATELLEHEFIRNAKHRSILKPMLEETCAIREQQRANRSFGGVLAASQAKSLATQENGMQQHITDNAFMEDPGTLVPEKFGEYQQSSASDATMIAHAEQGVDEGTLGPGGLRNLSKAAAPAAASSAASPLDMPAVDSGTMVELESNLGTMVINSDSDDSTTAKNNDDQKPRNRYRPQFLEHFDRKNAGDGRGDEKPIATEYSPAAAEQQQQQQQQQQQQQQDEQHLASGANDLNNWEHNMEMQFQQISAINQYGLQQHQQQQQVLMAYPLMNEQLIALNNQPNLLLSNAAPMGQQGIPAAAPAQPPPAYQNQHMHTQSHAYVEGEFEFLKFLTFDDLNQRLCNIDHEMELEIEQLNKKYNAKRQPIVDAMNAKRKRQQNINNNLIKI

[2] = target: T1, Flag-Hpo (Flag-tagged Drosophila Hippo, from UAS-Flag-Hpo) (Drosophila melanogaster); experiment: co-IP; remark: listed apart in the source

Row | Substance | binding [1] | binding [2]
1 | EMC3-Myc (Myc-tagged Drosophila EMC3, from UAS-EMC3-MYC) (from UniProt Q9VKR0) | binds | –
2 | EMC1-GFP (GFP-tagged Drosophila EMC1, from UAS-EMC1-GFP) | binds | binds

Where two headings read alike, the source gives them in different places. Results are given in words; binding and its absence hold for the method and conditions named. Binding seen in cells or lysates may run through a third protein. A result given as binding can be weak or reduced; the word gives no strength. Sequences can lack the tags named with a protein.
